According to patent publication US7931904B2, “Modulation of MUC1 activity” (Dana Farber Cancer Institute, Inc., priority 2005, dated 2011):
Some results were stated once for a whole list of compounds, not compound by compound.

What was measured:
Format in all cases: cell-based, human
Settings in all cases: 50 μM
HCT116/MUC1 cells [1] = test: ChIP with anti-MUC1 C-ter antibody, p21 gene p53RE2
ZR-75-1 cells [2] = test: as above
HCT116/MUC1 cells [3] = test: ChIP with anti-MUC1 C-ter antibody, Bax gene PP
ZR-75-1 cells [4] = test: ChIP with anti-MUC1 C-ter antibody, Bax gene PP

COc1cc([C@@H]2c3cc4c(cc3[C@@H](O[C@@H]3O[C@@H]5CO[C@@H](C)O[C@H]5[C@H](O)[C@H]3O)[C@H]3COC(=O)[C@H]23)OCO4)cc(OC)c1O [etoposide]
drug exposure time at maximal MUC1 occupancy of p21 gene p53RE2 (HCT116/MUC1 cells [1]): 8 to 12 h | drug exposure time at maximal MUC1 occupancy of p21 gene p53RE2 (ZR-75-1 cells [2]): 8 to 12 h | time after treatment at maximal MUC1 occupancy of the Bax gene PP (HCT116/MUC1 cells [3]): 6 to 12 h | time after treatment at maximal MUC1 occupancy of the Bax gene PP (ZR-75-1 cells [4]): 6 to 12 h
